Experimental data reported in patent US9943507B2, “Treatment of pancreatic and related cancers with 5-acyl-6,7-dihydrothieno[3,2-c]pyridines” (Memorial Sloan-Kettering Cancer Center, priority 2012, dated 2018).
Some results were stated once for a whole list of compounds, not compound by compound.

Protein sequences, listed by entry. Tags and fused reporters are not part of them. Lines headed by an entry give the natural chain unless they say otherwise; changes in a name come on top.
UniProt Q5VTY9: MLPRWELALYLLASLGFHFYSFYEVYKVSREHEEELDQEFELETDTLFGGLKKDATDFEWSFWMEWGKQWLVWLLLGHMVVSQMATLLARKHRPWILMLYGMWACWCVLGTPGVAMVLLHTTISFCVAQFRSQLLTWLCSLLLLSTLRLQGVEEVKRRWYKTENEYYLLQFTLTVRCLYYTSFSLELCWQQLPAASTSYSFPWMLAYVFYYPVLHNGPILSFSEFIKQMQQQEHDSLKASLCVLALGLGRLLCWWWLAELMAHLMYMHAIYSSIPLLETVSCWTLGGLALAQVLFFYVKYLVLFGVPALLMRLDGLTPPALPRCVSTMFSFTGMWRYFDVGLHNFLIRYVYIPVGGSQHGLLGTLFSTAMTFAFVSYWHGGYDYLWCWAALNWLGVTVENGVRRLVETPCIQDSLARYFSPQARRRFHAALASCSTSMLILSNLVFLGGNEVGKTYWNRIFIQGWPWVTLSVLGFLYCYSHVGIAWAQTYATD

Biological target: T1, purified Hhat (Homo sapiens, UniProt Q5VTY9)
T1 construct: made in house; host or cells: 293FT cells
Experiment: Purified Hhat palmitoylation of Shh peptide (cpm incorporated, streptavidin pull-down)
Format: biochemical
Details: 20 μM compound, saturating 125I-Iodopalmitoyl CoA + Shh peptide, FIG. 2

For `CCC(C)CNCC(=O)N1CCc2sccc2C1c1cccc(C)c1` (centres unmarked) [Example 13], the “reduction in cpm incorporated into Shh peptide” value was “greater than 75%”.

For `CCC(C)CNCC(=O)N1CCc2sccc2C1c1cccc(C)n1` (centres unmarked) [Example 14], the “reduction in cpm incorporated into Shh peptide” value was “greater than 75%”.
